Results published in PubChem BioAssay AID624297 (National Center for Advancing Translational Sciences (NCATS), 2012).
In all, about 340,000 compounds went through this assay and about 6,200 (1.8%) were called active. Inconclusive means that the source gave no clear call. Such entries were picked first, then a sample of the others. Calls come from the whole dose curve; as a rule, active = well fitted activation curve with a large enough effect; inconclusive = small, poorly fitted or top-dose-only effect; inactive = no such curve, though single readings can be large or run the other way. A potency beside an inconclusive call is a rough fit, not a confirmed value.
Potency is the fitted concentration of half-maximal effect.

Assay: A quantitative high throughput screen for small molecules that induce DNA re-replication in SW480 colon adenocarcinoma cells. For re-replication activation: % of control where 0% means no effect. Note: nearly all actives have a fitted effect of over 55% in size.
Details: Hoechst DNA content imaging, 48 h; re-replication activation: at 46.1 µM (top of the series) unless noted
How it was run: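 DNA re-replication was detected as more nuclei of elevated Hoechst intensity after 48 hr exposure to compound (23 nL pinned per well of 250 cells).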
With `CC1CCN(CCCn2c(SCC(=O)Nc3ccccc3Cl)nc3ccccc3c2=O)CC1` the Potency was inconclusive: 20.6 µM [activator, single point].
In the case of `CCCCCn1c(=O)[nH]c2cc(C(=O)NCCCN3CCC(C)CC3)ccc2c1=O`, the Potency is reported as inconclusive: 29.1 µM [activator, single point].
For `c1ccc(-c2ccccc2OCCCCN2CCCCC2)cc1`, the Potency was inconclusive: 32.6 µM [activator, partial curve, poor fit].
In the case of `Cc1ccc2c(c1)C1CN(C)CCC1N2S(=O)(=O)c1ccc(Oc2ccc([N+](=O)[O-])cc2)cc1` (stereo unspecified), the Potency is reported as inconclusive: 23.1 µM [activator, single point].
With `COCCNC(=S)Nc1cc2oc3ccccc3c2cc1OC` the Potency was inconclusive: 20.6 µM [activator, partial curve, poor fit].
In the case of `O=C(c1ccc2c(c1)OCCO2)C1CCN(C(=O)c2ccc(F)cc2)CC1`, the “re-replication activation” value is reported as inactive: -18.2%.
In the case of `Cc1ccc(C(C(=O)NCC2CCCO2)N(Cc2ccccc2)C(=O)c2ccc(-c3ccccc3)[nH]2)o1` (stereo unspecified), the Potency is reported as inconclusive: 23.1 µM [activator, partial curve, poor fit].
For `Cc1nn(C)c(C)c1CN(C)C(=O)C1CCC(=O)N(C2CCCCCC2)C1` (stereo unspecified), the Potency was inconclusive: 29.1 µM [activator, single point].
In the case of `COC(=O)N/N=C/c1cn(Cc2ccc(Cl)cc2Cl)c2ccccc12`, the Potency is reported as inconclusive: 0.13 µM [activator, full curve, poor fit].
With `CC1CC(C)(C)N2C(=O)C3(Nc4ccccc4S3)c3cccc1c32` (stereo unspecified) the Potency was inconclusive: 23.1 µM [activator, single point].
For `Cc1cc(NC(=O)COC(=O)c2cnccn2)ccc1Br`, the “re-replication activation” value was inactive: -15.9%.
In the case of `NNc1ccc(Cc2ccc(Cl)cc2Cl)nn1`, the Potency is reported as inconclusive: 20.6 µM [activator, single point].
In the case of `O=C(N/N=C/c1ccccn1)c1ccc(NC(=O)c2ccccc2Cl)cc1`, the Potency is reported as inconclusive: 14.6 µM [activator, single point].
For `CCOC(=O)c1ccccc1NS(=O)(=O)c1ccc(OCC)cc1`, the Potency was active: 11.6 µM.
With `COc1ccc2nc(NC(=O)c3ccco3)sc2c1` the “re-replication activation” value was inactive: 3.53%.
For `COc1ccc2c(Cl)c(C(=O)N/N=C/c3ccc4c(c3)OCO4)sc2c1`, the Potency was inconclusive: 18.4 µM [activator, single point].
In the case of `COC(=O)[C@]1(Cc2ccccc2)N[C@H](CN(C)S(=O)(=O)c2ccc(-c3ccccc3)cc2)[C@@H]2C(=O)N(C)C(=O)[C@@H]21`, the Potency is reported as inconclusive: 6.51 µM [activator, single point].
In the case of `Cc1ccccc1NC(=S)NC(=O)CCc1ccccc1`, the “re-replication activation” value is reported as inactive: 4.28%.
For `COc1ccc(C(=O)NCc2nnc(SCC(=O)NO)n2Cc2ccccc2)cc1`, the “re-replication activation” value was inactive: -1.27%.
For `COc1ccc(C(=O)c2sc3nc(-c4ccccc4)ccc3c2N)cc1`, the Potency was active: 20.6 µM.
For `CC1CCCCC12NC(=O)N(CC(=O)N1CCN(S(=O)(=O)c3cccs3)CC1)C2=O` (stereo unspecified), the Potency was inconclusive: 29.1 µM [activator, single point].
For `Cc1cccc(NC(=S)N(CCN(C)C)Cc2cc3cccc(C)c3[nH]c2=O)c1`, the Potency was inconclusive: 18.4 µM [activator, partial curve, poor fit].
With `O=[N+]([O-])c1cc(S(=O)(=O)N2CCCC2)ccc1SCCO` the Potency was inconclusive: 0.231 µM [activator, single point].
In the case of `CCCCCCN(C(=O)CCCN1C(=O)NC(c2ccc([N+](=O)[O-])cc2)C(C(=O)OCc2ccccc2)=C1C)C(C)C(=O)NCCCC` (stereo unspecified), the “re-replication activation” value is reported as inactive: 11.3%.
For `Cc1ccc(-c2csc3ncnc(N4CCN(C(=O)c5ccccc5)CC4)c23)cc1`, the re-replication activation was inactive: 1.02% [at 9.22 µM].
With `CC(C)=CC(=O)N1CC[C@@H](N2CCN(c3ccccc3F)CC2)[C@H](O)C1` the “re-replication activation” value was inactive: -7%.
In the case of `Cc1ccc(S(=O)(=O)Nc2ccccc2N2CCOCC2)cc1`, the Potency is reported as inconclusive: 25.9 µM [activator, single point].
For `COC(=O)c1sccc1NC(=S)N1CCN(c2cccc(C)c2C)CC1`, the Potency was inconclusive: 29.1 µM [activator, single point].
With `Cc1ccc(Cl)cc1NC(=O)c1cc(S(=O)(=O)N2CCOCC2)cn1C` the “re-replication activation” value was inactive: -0.269%.
In the case of `Cc1onc(-c2ccccc2)c1NC(=O)Nc1c(-c2ccccc2)noc1C`, the “re-replication activation” value is reported as inactive: -5.96%.
With `Cc1cccc(NC(=O)C2C3C=CC4(O3)C2C(=O)N(CCCN2CCCC2)C4C(=O)NC2CCCC(C)C2C)c1` (stereo unspecified) the Potency was inconclusive: 18.4 µM [activator, partial curve, poor fit].
In the case of `Cc1ccccc1-n1nc2c(c1NC(=O)c1ccc3c(c1)OCO3)CS(=O)(=O)C2`, the “re-replication activation” value is reported as inactive: -0.941%.
For `CCOC(=O)c1ccc(NC(=S)Nc2ccc(Cl)cn2)cc1`, the Potency was inconclusive: 18.4 µM [activator, partial curve, poor fit].
In the case of `CC(NC(=O)C1(S(=O)(=O)c2ccc(Cl)cc2)CC1)c1ccccc1` (stereo unspecified), the “re-replication activation” value is reported as inactive: 146%.
In the case of `O=C1NC(=O)N(C2CCCCC2)CC1Br` (stereo unspecified), the Potency is reported as inconclusive: 23.1 µM [activator, single point].
For `Cc1nn(Cc2ccc(Cl)cc2)c(C)c1NC(=O)CSc1nc2c(c(C(F)(F)F)n1)CCc1ccccc1-2`, the Potency was inconclusive: 18.4 µM [activator, single point].
In the case of `Cc1ccccc1OCc1n[nH]c(=S)n1-c1cccc(Cl)c1`, the “re-replication activation” value is reported as inactive: 2.77%.
For `O=C(CC(O)(C(F)(F)F)C(F)(F)F)Nc1ccc(Cl)c(Cl)c1`, the Potency was active: 14.6 µM.
In the case of `CN1C=CC=C/C1=C1\SC(=S)N(Cc2ccccc2)C1=O`, the Potency is reported as active: 23.1 µM.
For `CN(C)c1ccc(-c2nc3cnccn3c2Nc2ccc3c(c2)OCCO3)cc1`, the “re-replication activation” value was inactive: -17.8%.
For `COc1ccc(OC)c(C(=O)NC(CC(N)=O)c2ccc(NCc3ccc(F)c(F)c3)c([N+](=O)[O-])c2)c1` (stereo unspecified), the “re-replication activation” value was inactive: -17.2%.
With `CCCOC(=O)c1c(-c2ccccc2)nc(CC)c(C(=O)SCC)c1CCC` the Potency was inconclusive: 0.184 µM [activator, single point].
In the case of `COc1ccc(C2C(C#N)=C(N)Oc3cc4c(cc32)OCO4)cc1` (stereo unspecified), the Potency is reported as inconclusive: 29.1 µM [activator, single point].
For `CCN(CC(O)COc1ccc(OCC(O)CN(CC)C2CCCCC2)cc1)C1CCCCC1` (stereo unspecified), the Potency was inconclusive: 20.6 µM [activator, single point].
For `CN1CCC(NCCC(c2ccc(F)cc2)c2ccc(Cl)cc2)CC1` (stereo unspecified), the Potency was inconclusive: 6.51 µM [activator, single point].
For `O=C(NC1CCCC1)C(c1ccncc1)N(C(=O)Cn1nnc(-c2ccccc2F)n1)c1cccc(F)c1` (stereo unspecified), the “re-replication activation” value was inactive: -1.1%.
For `C=CCn1c(SCc2cc(=O)n3ccsc3n2)nc2cc(Cl)ccc2c1=O`, the Potency was inconclusive: 16.4 µM [activator, single point].
With `Cn1c(C(=O)NCCN2CCOCC2)cc2c(=O)n3ccccc3nc21` the re-replication activation was inconclusive: 50% [activator].
In the case of `Cc1ccc2oc3nc(C)c(C(=O)Nc4cccc(C(F)(F)F)c4)cc3c(=O)c2c1`, the “re-replication activation” value is reported as inactive: 2.36%.
In the case of `COC(=O)c1ccc(COC(=O)c2ccc(C)c(S(=O)(=O)N3CCCCC3)c2)cc1`, the “re-replication activation” value is reported as inactive: -42.3%.
For `CCSC1=N/C(=C\c2ccccc2)C(=O)N1c1ccc(OC)cc1`, the Potency was active: 18.4 µM.
With `Cc1ccc(-c2csc(NC(=O)CSc3nc4ccccc4o3)n2)cc1` the Potency was inconclusive: 0.0411 µM [activator, full curve, poor fit].
For `COc1cc(/C=C2\SC(N)=NC2=O)ccc1OCC(=O)Nc1ccccc1C`, the Potency was inconclusive: 29.1 µM [activator, single point].
For `Cc1ccc(C(=O)/C=C/Nc2cccc(O)c2)cc1`, the Potency was inconclusive: 25.9 µM [activator, single point].
With `CCOC(=O)c1ccc(-c2ccc(/C=C(\C#N)C(=O)NCc3cccs3)o2)cc1` the Potency was inconclusive: 4.61 µM [activator, full curve].
With `C=CCNc1cc(=O)n(Cc2ccccc2)c(=O)[nH]1` the “re-replication activation” value was inactive: -9.82%.
With `CCN1CCN(c2cc(C)c3cc(NC(=S)N(CC)CC)ccc3n2)CC1` the re-replication activation was inconclusive: 47.5% [activator].
With `CCCCN1C(=O)NC(NC(=O)C2CC2)(C(F)(F)F)C1=O` (stereo unspecified) the Potency was inconclusive: 2.91 µM [activator, single point].
In the case of `COc1ccc(CN2C(=O)Cc3c2nc(N)c2c(N)nc(N4CCOCC4)c(C#N)c32)cc1`, the “re-replication activation” value is reported as inactive: -1.77%.
In the case of `Oc1ccc(Cl)cc1CNCc1ccc(F)c(F)c1`, the Potency is reported as inconclusive: 16.4 µM [activator, partial curve, poor fit].
In the case of `COc1ccc(C(CNC(=O)C(=O)Nc2ccc3c(c2)OCCO3)N2CCN(C)CC2)cc1` (stereo unspecified), the Potency is reported as inconclusive: 32.6 µM [activator, single point].
In the case of `O=C(Nc1cc(Cl)ccc1N1CCOCC1)c1ccc(Br)o1`, the “re-replication activation” value is reported as inactive: -0.604%.
For `O=C(N/N=C/c1ccco1)c1cc(-c2ccc3ccccc3c2)n[nH]1`, the Potency was active: 23.1 µM.
For `O=C(N/C(=C\c1ccc(Br)cc1)C(=O)N1CCOCC1)c1ccc(Br)o1`, the “re-replication activation” value was inactive: -8.05%.
In the case of `CCN1C(=O)/C(=C/C=C2/CCCN2C)OC1=S`, the “re-replication activation” value is reported as inactive: -3.79%.
In the case of `Cc1ccc(-c2cc(C(=O)N/N=C/c3ccc(F)cc3)n[nH]2)o1`, the “re-replication activation” value is reported as inactive: 6.44%.
For `Cc1cc(NS(=O)(=O)c2ccc(NC(=S)NC(=O)c3cccnc3)cc2)no1`, the Potency was active: 3.26 µM.
With `CC(OC(=O)c1ccc([N+](=O)[O-])cc1)C(=O)NCC1CCCCC1` (stereo unspecified) the “re-replication activation” value was inactive: -0.927%.
In the case of `C/C(=N\NC(=O)COc1ccc(C)cc1[N+](=O)[O-])c1cccs1`, the Potency is reported as inconclusive: 29.1 µM [activator, single point].
With `COc1cc(C(=O)NNC(=S)NC(=O)c2ccc(F)cc2)cc(OC)c1OC` the Potency was inconclusive: 23.1 µM [activator, single point].
In the case of `CN(CC(=O)Nc1ccccc1C(F)(F)F)C(=O)C1CC1`, the “re-replication activation” value is reported as inactive: -1.97%.
